Data: paper PMC10470007 (The Journal of Biological Chemistry, 2023)
No constants are given. Whether binding was seen depends on the method and setting. Some entries that bind do so weakly or less than the wild type.

Amino acid sequences for entries named in this document (tags omitted).
UniProt P35372: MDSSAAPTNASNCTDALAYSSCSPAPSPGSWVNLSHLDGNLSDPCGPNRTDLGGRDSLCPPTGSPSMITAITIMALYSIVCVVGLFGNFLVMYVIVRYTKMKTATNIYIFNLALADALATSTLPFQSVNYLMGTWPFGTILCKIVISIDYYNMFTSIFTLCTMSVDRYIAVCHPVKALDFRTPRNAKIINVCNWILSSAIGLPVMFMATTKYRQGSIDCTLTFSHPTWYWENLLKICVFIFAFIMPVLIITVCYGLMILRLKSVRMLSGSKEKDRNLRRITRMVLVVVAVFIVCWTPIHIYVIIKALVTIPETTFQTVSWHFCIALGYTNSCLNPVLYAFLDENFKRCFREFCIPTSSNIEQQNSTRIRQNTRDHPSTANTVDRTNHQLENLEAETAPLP

Assays:
AT1R-TANGO = AT1R-TANGO (UniProt P30556); assay: Tango (protease-dependent reporte)
μ-OR-TANGO = μ-OR-TANGO (UniProt P35372); assay: Tango (protease-dependent reporte)

β-arrestin2-TEV219 (from UniProt P32121 1-409)
binding (AT1R-TANGO): binds | binding (μ-OR-TANGO): binds
